Article PMC9890722

Sequences of proteins named here, by UniProt entry; tags and fusion partners are left off.
UniProt O95714: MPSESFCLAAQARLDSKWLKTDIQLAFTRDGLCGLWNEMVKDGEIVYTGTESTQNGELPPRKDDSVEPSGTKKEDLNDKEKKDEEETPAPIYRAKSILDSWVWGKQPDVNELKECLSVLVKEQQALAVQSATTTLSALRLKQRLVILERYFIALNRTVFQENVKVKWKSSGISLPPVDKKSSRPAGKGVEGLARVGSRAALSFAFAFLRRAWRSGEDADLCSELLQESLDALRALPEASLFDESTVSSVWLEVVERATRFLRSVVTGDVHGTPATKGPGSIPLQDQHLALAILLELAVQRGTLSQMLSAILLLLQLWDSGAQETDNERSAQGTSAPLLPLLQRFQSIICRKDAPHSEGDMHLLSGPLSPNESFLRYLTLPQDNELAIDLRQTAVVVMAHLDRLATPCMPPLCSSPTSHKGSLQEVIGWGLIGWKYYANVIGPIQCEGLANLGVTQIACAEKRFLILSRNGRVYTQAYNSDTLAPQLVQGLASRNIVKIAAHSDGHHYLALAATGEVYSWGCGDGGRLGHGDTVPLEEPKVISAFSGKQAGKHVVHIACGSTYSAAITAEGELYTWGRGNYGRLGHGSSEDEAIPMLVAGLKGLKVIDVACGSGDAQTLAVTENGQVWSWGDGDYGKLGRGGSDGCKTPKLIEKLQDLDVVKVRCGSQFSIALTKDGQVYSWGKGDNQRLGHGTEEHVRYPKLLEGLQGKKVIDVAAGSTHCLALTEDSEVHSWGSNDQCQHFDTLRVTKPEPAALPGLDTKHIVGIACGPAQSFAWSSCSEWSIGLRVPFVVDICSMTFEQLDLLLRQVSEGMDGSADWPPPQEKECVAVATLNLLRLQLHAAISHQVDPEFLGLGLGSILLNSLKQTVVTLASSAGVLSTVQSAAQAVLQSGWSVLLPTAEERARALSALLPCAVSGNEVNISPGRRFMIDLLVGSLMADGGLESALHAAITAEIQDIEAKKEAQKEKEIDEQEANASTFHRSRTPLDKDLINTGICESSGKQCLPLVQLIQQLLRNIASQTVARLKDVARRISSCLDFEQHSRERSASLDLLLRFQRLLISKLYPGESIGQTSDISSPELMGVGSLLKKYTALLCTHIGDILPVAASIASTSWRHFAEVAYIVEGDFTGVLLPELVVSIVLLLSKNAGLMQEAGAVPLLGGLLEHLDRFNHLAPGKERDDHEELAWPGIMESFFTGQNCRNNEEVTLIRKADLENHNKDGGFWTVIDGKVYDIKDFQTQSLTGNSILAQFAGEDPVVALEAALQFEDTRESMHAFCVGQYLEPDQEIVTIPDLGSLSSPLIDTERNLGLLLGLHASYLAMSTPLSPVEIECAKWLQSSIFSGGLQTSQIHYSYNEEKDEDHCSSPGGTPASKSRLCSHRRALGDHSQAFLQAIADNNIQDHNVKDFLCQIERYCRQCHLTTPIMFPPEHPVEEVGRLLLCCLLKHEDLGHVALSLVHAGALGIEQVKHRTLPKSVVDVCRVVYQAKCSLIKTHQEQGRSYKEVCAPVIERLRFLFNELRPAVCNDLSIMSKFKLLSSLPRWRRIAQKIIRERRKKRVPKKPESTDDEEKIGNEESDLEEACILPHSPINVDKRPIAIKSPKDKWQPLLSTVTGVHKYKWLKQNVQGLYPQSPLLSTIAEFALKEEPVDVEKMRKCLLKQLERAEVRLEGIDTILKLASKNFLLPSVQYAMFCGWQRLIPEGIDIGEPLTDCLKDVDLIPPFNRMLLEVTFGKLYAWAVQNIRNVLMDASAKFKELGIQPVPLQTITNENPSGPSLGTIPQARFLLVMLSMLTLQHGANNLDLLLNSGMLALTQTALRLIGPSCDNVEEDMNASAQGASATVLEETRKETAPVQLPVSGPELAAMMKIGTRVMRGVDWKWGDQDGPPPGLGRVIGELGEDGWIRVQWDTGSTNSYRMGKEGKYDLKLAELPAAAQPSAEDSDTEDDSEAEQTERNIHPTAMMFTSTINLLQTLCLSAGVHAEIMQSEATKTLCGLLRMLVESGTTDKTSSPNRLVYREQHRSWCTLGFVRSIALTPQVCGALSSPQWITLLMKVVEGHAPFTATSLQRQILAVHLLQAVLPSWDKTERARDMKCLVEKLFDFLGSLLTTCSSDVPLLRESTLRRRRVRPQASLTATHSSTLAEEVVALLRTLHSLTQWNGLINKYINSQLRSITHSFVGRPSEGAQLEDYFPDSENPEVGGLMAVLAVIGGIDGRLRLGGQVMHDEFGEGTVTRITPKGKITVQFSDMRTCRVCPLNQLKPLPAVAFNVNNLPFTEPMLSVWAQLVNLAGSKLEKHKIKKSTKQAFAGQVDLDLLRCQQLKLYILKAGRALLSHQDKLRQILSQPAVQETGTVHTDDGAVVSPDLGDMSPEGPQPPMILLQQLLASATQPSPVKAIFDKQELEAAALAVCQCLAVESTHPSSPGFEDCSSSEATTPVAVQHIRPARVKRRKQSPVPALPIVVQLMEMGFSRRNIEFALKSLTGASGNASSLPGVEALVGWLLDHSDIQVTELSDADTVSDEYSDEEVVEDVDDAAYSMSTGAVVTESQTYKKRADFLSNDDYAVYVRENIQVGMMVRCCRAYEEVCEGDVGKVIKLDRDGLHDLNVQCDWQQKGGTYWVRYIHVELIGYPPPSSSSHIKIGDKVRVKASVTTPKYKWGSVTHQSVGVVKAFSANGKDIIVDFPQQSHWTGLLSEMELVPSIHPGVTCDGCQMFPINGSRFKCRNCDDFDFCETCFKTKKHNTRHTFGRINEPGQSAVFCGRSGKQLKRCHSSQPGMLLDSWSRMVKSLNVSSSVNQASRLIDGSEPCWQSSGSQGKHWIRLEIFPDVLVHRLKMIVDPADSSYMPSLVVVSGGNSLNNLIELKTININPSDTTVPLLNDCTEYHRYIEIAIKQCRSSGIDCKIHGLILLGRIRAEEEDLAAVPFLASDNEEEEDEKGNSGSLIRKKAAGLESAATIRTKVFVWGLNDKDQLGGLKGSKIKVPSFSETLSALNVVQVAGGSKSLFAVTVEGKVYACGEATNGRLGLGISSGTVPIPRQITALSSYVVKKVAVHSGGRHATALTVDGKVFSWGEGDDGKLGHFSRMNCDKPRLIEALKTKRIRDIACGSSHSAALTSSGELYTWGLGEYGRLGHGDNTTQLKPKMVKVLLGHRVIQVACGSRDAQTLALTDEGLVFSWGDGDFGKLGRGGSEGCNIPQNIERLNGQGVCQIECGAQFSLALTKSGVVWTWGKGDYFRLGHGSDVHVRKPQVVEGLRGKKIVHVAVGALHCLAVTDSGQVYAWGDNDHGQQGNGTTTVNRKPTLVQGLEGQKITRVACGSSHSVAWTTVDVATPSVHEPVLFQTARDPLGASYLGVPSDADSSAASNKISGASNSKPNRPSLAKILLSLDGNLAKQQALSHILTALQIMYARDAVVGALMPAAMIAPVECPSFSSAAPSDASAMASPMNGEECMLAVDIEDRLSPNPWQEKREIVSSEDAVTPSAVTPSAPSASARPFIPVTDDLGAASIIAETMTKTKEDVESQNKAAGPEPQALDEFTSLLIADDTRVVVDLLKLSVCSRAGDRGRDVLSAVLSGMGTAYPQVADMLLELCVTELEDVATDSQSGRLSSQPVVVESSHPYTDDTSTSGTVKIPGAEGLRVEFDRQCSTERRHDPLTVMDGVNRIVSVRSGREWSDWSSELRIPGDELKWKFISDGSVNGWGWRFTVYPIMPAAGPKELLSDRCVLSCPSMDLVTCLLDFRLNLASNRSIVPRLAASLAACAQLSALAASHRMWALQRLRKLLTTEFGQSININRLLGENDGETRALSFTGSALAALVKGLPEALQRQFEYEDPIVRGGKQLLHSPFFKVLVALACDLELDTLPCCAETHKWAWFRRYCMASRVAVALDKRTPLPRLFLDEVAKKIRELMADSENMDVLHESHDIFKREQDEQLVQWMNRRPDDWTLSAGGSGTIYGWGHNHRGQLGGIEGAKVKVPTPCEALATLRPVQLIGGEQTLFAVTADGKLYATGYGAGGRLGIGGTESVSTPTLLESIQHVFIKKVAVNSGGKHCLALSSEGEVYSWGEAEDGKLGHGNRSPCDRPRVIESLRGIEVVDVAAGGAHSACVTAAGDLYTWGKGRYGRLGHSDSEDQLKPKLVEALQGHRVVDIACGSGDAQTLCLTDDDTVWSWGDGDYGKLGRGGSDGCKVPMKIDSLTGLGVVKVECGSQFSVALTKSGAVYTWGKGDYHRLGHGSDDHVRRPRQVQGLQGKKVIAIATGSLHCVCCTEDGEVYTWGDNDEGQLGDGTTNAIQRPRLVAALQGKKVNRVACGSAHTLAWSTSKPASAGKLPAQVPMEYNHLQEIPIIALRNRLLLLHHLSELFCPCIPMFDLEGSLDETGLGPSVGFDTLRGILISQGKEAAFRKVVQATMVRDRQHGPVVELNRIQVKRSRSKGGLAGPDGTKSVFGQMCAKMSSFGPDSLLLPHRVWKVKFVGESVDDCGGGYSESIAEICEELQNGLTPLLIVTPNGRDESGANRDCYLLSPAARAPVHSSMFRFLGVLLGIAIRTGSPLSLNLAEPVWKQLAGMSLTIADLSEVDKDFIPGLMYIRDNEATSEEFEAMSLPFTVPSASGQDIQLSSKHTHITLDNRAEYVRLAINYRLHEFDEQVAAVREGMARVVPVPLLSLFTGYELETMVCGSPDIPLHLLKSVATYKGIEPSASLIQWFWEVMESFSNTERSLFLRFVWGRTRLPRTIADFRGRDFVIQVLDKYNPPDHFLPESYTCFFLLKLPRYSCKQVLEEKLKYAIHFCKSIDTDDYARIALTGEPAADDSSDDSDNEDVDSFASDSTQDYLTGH

Biological target: HECT and RLD domain-containing E3 ubiquitin-protein ligase 2 (HERC2) (human (endogenous in Huh7)) (UniProt O95714)
Test: affinity purification with mass spectrometry; Huh7 cells treated with 50 ng/ml IL-6 for 20 min; lysate precipitated with an antibody against HERC2, SDS-PAGE, silver staining; band at 40-55 kDa cut out and analysed by 4-D label-free quantitative proteomics

- binding: binds
B1: protein tyrosine phosphatase 1B (PTP1B) (protein, UniProt P18031 1-435)
chain: MEMEKEFEQIDKSGSWAAIYQDIRHEASDFPCRVAKLPKNKNRNRYRDVSPFDHSRIKLHQEDNDYINASLIKMEEAQRSYILTQGPLPNTCGHFWEMVWEQKSRGVVMLNRVMEKGSLKCAQYWPQKEEKEMIFEDTNLKLTLISEDIKSYYTVRQLELENLTTQETREILHFHYTTWPDFGVPESPASFLNFLFKVRESGSLSPEHGPVVVHCSAGIGRSGTFCLADTCLLLMDKRKDPSSVDIKKVLLEMRKFRMGLIQTADQLRFSYLAVIEGAKFIMGDSSVQDQWKELSHEDLEPPPEHIPPPPRPPKRILEPHNGKCREFFPNHQWVKEETQEDKDCPIKEEKGSPLNAAPYGIESMSQDTEVRSRVVGGSLRGAQAASPAKGEPSLPEKDEDHALSYWKPFLVNMCVATVLTAGAYLCYRFLFNSNT

Results are given in words; binding and its absence hold for the method and conditions named. Binding seen in cells or lysates may run through a third protein. These calls come from enrichment with a bait or labelling near it, and not all partners need be listed.
